Measured values from paper PMC12383145 (Antibiotics, 2025).

Assay: general procedure: Fmoc solid-phase peptide synthesis; Rink amide MBHA resin (0.46 meq/g); DCC/6-Cl-HOBt; TBTU/DIPEA for probes
Settings: whole synthesis, scale of the general procedure 150 mg resin

Row | Substance | final HPLC purity (210 nm) [%] | crude HPLC purity (RP-HPLC) [%] | final HPLC purity (RP-HPLC) [%]
1 | (RhB-RRWQWR-hF-KKLG)2K-Ahx | 98.4 | – | –
2 | (RRWQWR-hF-KKLG)2K-Ahx | 97.2 | – | –
3 | PEPTIDE1{R.W.Q.W.R.W.Q.W.R.[am]}$$$$V2.0 | 93.1 | – | –
4 | PEPTIDE1{[2-Abz].R.W.Q.W.R.W.Q.W.R.[am]}$$$$V2.0 | 89.7 | – | –
5 | PEPTIDE1{R.W.Q.W.R.W.Q.W.R.[2-Abz].[am]}$$$$V2.0 | 88.4 | 24.0 | 85.5

Some peptides are written in HELM: one residue between dots, names in brackets for other building blocks, links after the first $.
